From PubChem BioAssay AID493014 (National Center for Advancing Translational Sciences (NCATS), 2011)
Hit rate of the full screen: of about 340,000 compounds, about 170 (0.05%) were called active. Inconclusive results, whose numbers are uncertain, are shown with a selection of clear calls. Calls come from the whole dose curve; as a rule, active = well fitted inhibition curve with a large enough effect in the signal ratio, with a control signal flat (not every such curve was filed as active); inconclusive = small, poorly fitted or top-dose-only effect, or effect the other way, or a change in a side signal; inactive = flat fitted curve, though single readings scatter; the % refers to the signal ratio. A potency beside an inconclusive call is a rough fit, not a confirmed value.

Experiment: qHTS Assay to Find Inhibitors of Chronic Active B-Cell Receptor Signaling;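 for activity change, negative = inhibition: plate controls were basal doxycycline-induced cells for no effect and cells given 10 µM MG132 for full effect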
Settings: ABC-DLBCL IkBa-CBG/CBR reporter, luminescence ratio (green luciferase fused to IkBa over red control in TMD8 lymphoma cells), 4 h; activity change, negative = inhibition: at 46.1 µM (top of the series) unless noted
Summary of the method: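 Concentration-response series (up to 46 uM) were applied to TMD8 dual-reporter cells for 4 h at 37C with doxycycline. Green/red ratio, after filter-overlap correction, defined %Activity; red signal alone was normalised to basal cells and zero luminescence.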
Potency is the fitted concentration of half-maximal effect.

SMILES | activity change, negative = inhibition | Potency
Cc1ccc(C(=O)Oc2ccccc2N2C(=O)C3CCC(C)CC3C2=O)cc1 (configuration not stated) | inconclusive: 2.58% | 
Cc1cc(F)ccc1S(=O)(=O)Nc1nc2ccccc2nc1Cl |  | inconclusive: 3.98 µM [falling, partial curve, poor fit]
O=C(NCCc1ccc(O)cc1)c1ccc(Cl)cc1 |  | inconclusive: 20 µM [falling, partial curve, poor fit]
COc1cccc(-c2cc(=O)c3cc(NC(C)=O)ccc3[nH]2)c1 |  | inconclusive: 25.9 µM [falling, single point]
Cc1cccc(NC(=O)COc2ccc(Br)cc2/C=N/O)c1 | inconclusive: -4.9% | 
COc1ccc(CCNC(=O)C(=O)NCC(c2cccs2)S(=O)(=O)c2cccs2)cc1 (configuration not stated) | inactive | 
Cc1cccc(NC(=O)Cc2nc(-c3c[nH]c(C(=O)N4CCCC4)c3)cs2)c1 | inactive | 
COc1ccccc1C(=O)NNC(=O)c1ccccc1 |  | inconclusive: 35.5 µM [rising, single point]
CC(C)COC(=O)C(C#N)c1nc2ccccc2nc1N1CCN(Cc2ccccc2)CC1 (configuration not stated) |  | inconclusive: 9.2 µM [rising, partial curve, poor fit]
CCOC(=O)c1oc2cccc(OC(C)=O)c2c1C | inconclusive: -16.3% | 
Cc1ccc(NC(=O)COc2ccccc2C#N)cc1S(=O)(=O)N1CCCCCC1 |  | inconclusive: 23.1 µM [falling, partial curve, poor fit]
O=C(c1c(Cl)cccc1Cl)N1CCN(c2ncccn2)CC1 | inconclusive: -2.13% | 
CCOC(=O)Nc1cc(C(=O)OC)ccc1C | inconclusive: -3% | 
O=C(Cn1cccc1)N1CCc2ccccc21 | inconclusive: -3.41% | 
CC(=O)c1ccc(S(=O)(=O)Oc2ccc(C(=O)O)cc2Cl)cc1 | inconclusive: -18.2% | 
COc1ccc(C2=Nn3c(nnc3-c3ccccc3Cl)SC2)cc1OCC1CC1 |  | inconclusive: 4.61 µM [falling, partial curve]
COc1cc(OC)cc(C(=O)NC(=S)Nc2ccc3c4c(cccc24)CC3)c1 | inactive | 
COc1ccc(CC(NC(C)=O)C(=O)N2CCN(C(=O)Nc3cccc(F)c3)CC2)cc1OC (configuration not stated) | inconclusive: 4.24% | 
N/C(=N\OC(=O)Cc1cccs1)c1ccc([N+](=O)[O-])cc1 | inconclusive: 3.5% | 
O=C(Nc1ccccn1)c1sc2cccc(F)c2c1Cl | inconclusive: 8.25% | 
CC(C)Cc1nc(SCC(=O)N2CCCC2)c2c(=O)n(C)c(=O)n(C)c2n1 | inactive | 
O=C(COC(=O)COc1ccc(Cl)cc1)NC1CCCCCC1 | inactive | 
O=C(N/N=C/c1ccccc1Cl)c1ccc(F)cc1 |  | inconclusive: 12.6 µM [falling, partial curve, poor fit]
O=S(=O)(c1ccc(Oc2ccccc2)cc1)N1CCOCC1 | inconclusive: 13.9% | 
O=C1c2cccc3c([N+](=O)[O-])ccc(c23)C(=O)N1O | inactive | 
CC(C)[C@H](NC(N)=O)C(=O)NNC(=O)COc1cccc(C(F)(F)F)c1 | inconclusive: 0.0184% | 

Retrieved one by one from the entries so far (three):
SMILES | activity change, negative = inhibition | Potency
Cc1ccc(C(=O)Oc2ccccc2N2C(=O)C3CCC(C)CC3C2=O)cc1 (configuration not stated) | inconclusive: 2.58% | 
CCOC(=O)Nc1cc(C(=O)OC)ccc1C | inconclusive: -3% | 
N/C(=N\OC(=O)Cc1cccs1)c1ccc([N+](=O)[O-])cc1 | inconclusive: 3.5% | 

Remaining list, next part:

SMILES | activity change, negative = inhibition | Potency
O=C(CO/N=C/c1ccccc1O)NNC(=O)c1ccccc1Cl |  | inconclusive: 23.1 µM [falling, partial curve]
CCN1CCCC1CNS(=O)(=O)c1cc(Br)cc2c1N(C(=O)C1CC1)CC2 (configuration not stated) | inconclusive: -3.43% | 
Cc1cccc(Cn2ccc(N)n2)c1 |  | inconclusive: 25.1 µM [falling, single point]
COC(=O)c1ccccc1NC(=O)CNc1ccc(F)c(S(=O)(=O)N2CCOCC2)c1 | inactive | 
O=C(Nc1ccc(C(F)(F)F)cc1)c1cc(S(=O)(=O)N2CCCc3ccccc32)ccc1F |  | inconclusive: 11.2 µM [falling, partial curve]
O=C(Nc1cccc2c1CCCC2)c1ccncc1 | inconclusive: 9.48% | 
Cc1nn(-c2ccc3ccccc3c2)c(=O)c2ccccc12 | inconclusive: 10% | 
COCCN(C(=O)COC(=O)CCc1c[nH]c2ccccc12)c1c(N)n(Cc2ccccc2)c(=O)[nH]c1=O |  | inconclusive: 29.1 µM [falling, single point]
O=[N+]([O-])c1ccccc1/C=C/c1ccc2ccccc2n1 |  | inconclusive: 28.2 µM [falling, single point]
COCCNc1nc(N)c([N+](=O)[O-])c(Nc2ccc(F)cc2)n1 | inconclusive: 2.94% | 
CC(C)CC(=O)Nc1ccc2c(c1)OCO2 | inactive | 
CC(=O)NN1C(=O)c2ccccc2NC1c1ccc([N+](=O)[O-])o1 (configuration not stated) | inactive | 
CN(C(=O)/C=C/c1ccc([N+](=O)[O-])s1)c1ccccc1 | inconclusive: -0.806% | 
CSc1ccccc1OCc1cc(C(=O)N2CCC[C@H]2C(N)=O)no1 | inactive | 
COc1ccc(C)cc1NS(=O)(=O)c1ccc2c(c1)N(C)CCO2 | inactive | 
CC1CCC(NC(=O)CCC(=O)N2CC(C)Oc3ccccc32)CC1 (configuration not stated) | inactive | 
O=C(Cn1nnc(-c2ccccc2)n1)Nc1cccc(S(=O)(=O)N2CCCC2)c1 |  | inconclusive: 16.4 µM [falling, partial curve, poor fit]
O=C(OCC(=O)N1N=C(c2ccc(Cl)cc2)CC1c1ccco1)c1cncc(Br)c1 (configuration not stated) | inactive | 
COc1cccc(C(=O)O/N=C(\N)Cc2ccc(Cl)cc2)c1 | inactive | 
NC(=O)CSc1nc(-c2ccccc2)nc2ccccc12 | inconclusive: 7.89% | 
O=C1CCCN2N=C(SCC(=O)Nc3ccc(OC(F)(F)F)cc3)SC2=N1 | inactive | 
O=C(/C=C/NCc1ccc(F)cc1)c1ccccc1 | inconclusive: 6.5% | 
COC(=O)c1ccccc1N/C=C/C(=O)c1ccc(Br)cc1 |  | inconclusive: 5.17 µM [falling, partial curve]
Cn1c(SCC(=O)Nc2cccc3ccccc23)nc(O)cc1=O | inconclusive: 5.01% | 
Cc1ccc(-c2nnc(Nc3ccc4c(c3)OCO4)c3ccccc23)cc1S(=O)(=O)NCCO |  | inconclusive: 10.3 µM [falling, partial curve]
c1coc(-c2ccc3ncnc(NCc4cccs4)c3c2)c1 |  | inconclusive: 25.9 µM [rising, single point]
